# Measurements: the supplement of paper PMC4604168 (melanoma cell lines)
# The list shows a part of the results. Many values rest on one well or one pass, so single values are uncertain.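 The apoptosis fraction was the count of cleaved-PARP antibody-stained nuclei relative to all DNA-stained nuclei, imaged in 1,536-well plates. Screening doses were set so most cells survived, and baseline and induced cleaved-PARP levels vary greatly across cell lines.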
# Tests used:
# Experiment in all cases: cleaved PARP positive nuclei fraction relative to DMSO control; melanoma cells; higher = more apoptosis
# Details in all cases: library dose: low library concentration; 72 h
# CBRC034 = system: CBRC034 (line from a melanoma biopsy)
# COLO792 = system: COLO792
# COLO800 = system: COLO800
# COLO829 = system: COLO829
# G361 = system: G361
# IPC-298 = system: IPC-298
# IST-MEL1 = system: IST-MEL1
# LB2518-MEL = system: LB2518-MEL
# LOXIMVI = system: LOXIMVI
# MZ2-MEL = system: MZ2-MEL
# MeWo = system: MeWo
# RPMI7951 = system: RPMI7951
# RVH-421 = system: RVH-421
# SkMel28 = system: SkMel28
# SkMel30 = system: SkMel30
# SkMel5 = system: SkMel5
# UACC257 = system: UACC257
# UACC62 = system: UACC62
SMILES,cleaved PARP positive nuclei fraction (CBRC034) [%],cleaved PARP positive nuclei fraction (COLO792) [%],cleaved PARP positive nuclei fraction (COLO800) [%],cleaved PARP positive nuclei fraction (COLO829) [%],cleaved PARP positive nuclei fraction (G361) [%],cleaved PARP positive nuclei fraction (IPC-298) [%],cleaved PARP positive nuclei fraction (IST-MEL1) [%],cleaved PARP positive nuclei fraction (LB2518-MEL) [%],cleaved PARP positive nuclei fraction (LOXIMVI) [%],cleaved PARP positive nuclei fraction (MZ2-MEL) [%],cleaved PARP positive nuclei fraction (MeWo) [%],cleaved PARP positive nuclei fraction (RPMI7951) [%],cleaved PARP positive nuclei fraction (RVH-421) [%],cleaved PARP positive nuclei fraction (SkMel28) [%],cleaved PARP positive nuclei fraction (SkMel30) [%],cleaved PARP positive nuclei fraction (SkMel5) [%],cleaved PARP positive nuclei fraction (UACC257) [%],cleaved PARP positive nuclei fraction (UACC62) [%]
"CCN(CC)CCCCNc1ncc2cc(-c3cc(OC)cc(OC)c3)c(NC(=O)NC(C)(C)C)nc2n1 + CC(C)CCN1c2nc(Nc3cc(F)c(O)c(F)c3)ncc2N(C)C(=O)C1C [BID1870] (first compound 0.1 µM, partner dose 0.2 µM)",29.7,105,51.5,47.2,61.1,56.9,35.3,90.5,11,118,35.6,38.3,12.8,76.8,413,55.5,135,36.4
"CN(NC(=O)CC(=O)NN(C)C(=S)c1ccccc1)C(=S)c1ccccc1 + O=C(Nc1ccccc1)c1cc([N+](=O)[O-])ccc1Cl [GW9662] (first compound 0.006 µM, partner dose 2 µM)",766,129,310,225,329,82.3,163,258,55.2,82.5,403,87.8,76.4,107,50.7,110,63.1,277
"N#Cc1c(O)c2c(-c3ccc(-c4ccccc4O)cc3)csc2[nH]c1=O + Oc1cc(-c2nc(-c3ccccc3)[nH]c2-c2ccncc2)ccc1Cl [L779450] (first compound 2 µM, partner dose 0.2 µM)",40.7,59.3,112,82.5,68.1,153,180,172,116,125,37.7,88.8,47.1,228,272,109,78.4,326
"COc1ccc(COc2ccc(Cc3cnc(N)nc3N)cc2OC)cc1 + Oc1nc(-c2ccc(C(F)(F)F)cc2)nc2c1CSCC2 [XAV939] (first compound 1 µM, partner dose 2 µM)",92.4,146,77.6,74.2,92.2,55.2,88.8,84.6,65.1,73.6,68,91.1,155,170,88,86.5,218,119
"COc1cc2c(Oc3ccc4[nH]c(C)cc4c3F)ncnc2cc1OCCCN1CCCC1 [cediranib] + N#Cc1c(O)c2c(-c3ccc(-c4ccccc4O)cc3)csc2[nH]c1=O [A769662] (first compound 0.4 µM, partner dose 2 µM)",101,46.6,76.8,95.1,161,69.3,120,102,106,41,95.5,121,93.2,121,128,54.9,187,39.2
"Cc1cc([N+](=O)[O-])ccc1NS(=O)(=O)c1cc(Cl)ccc1Cl + CCCCCCCCCCCC1=C(O)C(=O)C=C(O)C1=O [Embelin] (first compound 1 µM, partner dose 1.2 µM)",609,99.2,52.3,166,114,28.6,44.5,56.7,33.2,96.6,76.6,70.6,53.5,71.8,197,43.9,200,83.8
"O=C(O)c1ccc(-c2c[nH]c3ncc(-c4ccccc4)cc23)cc1C1CCCC1 + O=C1NC(=O)/C(=C/c2ccc(-c3ccc(F)cc3O)o2)S1 [AS252424] (first compound 0.16 µM, partner dose 1 µM)",86.7,92.4,238,78.1,180,89.7,27.7,85.5,140,90.5,56,305,83.1,79.6,14.8,60.7,184,114
"COc1cc2c(Oc3ccc4[nH]c(C)cc4c3F)ncnc2cc1OCCCN1CCCC1 [cediranib] + Cc1cc([N+](=O)[O-])ccc1NS(=O)(=O)c1cc(Cl)ccc1Cl [FH535] (first compound 0.4 µM, partner dose 1 µM)",579,149,106,74.2,71.7,123,45,86.2,115,142,105,87,71.8,169,54.5,80.4,52.5,51.9
"CN(C)S(=O)(=O)c1ccc2c(c1)/C(=C/c1cc3c([nH]1)CCCC3)C(=O)N2 + Cn1cc(/C=C2\C(=O)Nc3cccnc32)c2ccccc21 [GW441756] (first compound 0.4 µM, partner dose 0.4 µM)",87.7,22.1,89.3,43.2,83.3,38.5,102,183,107,109,32.7,78.6,28.6,173,30.3,99.1,152,86.5
"CCc1ccc(CCOc2ccc(CC3SC(=O)NC3=O)cc2)nc1 (configuration not stated) [pioglitazone] + COc1ccc(-c2ccc3c(N4CCOCC4)nc(N4C[C@@H](C)O[C@@H](C)C4)nc3n2)cc1CO [KU0063794] (first compound 2 µM, partner dose 0.02 µM)",371,77.6,58.7,94.2,103,227,85,40.5,33.6,124,56.2,173,70.4,65.4,97.4,63,29.7,78.9
"COC(=O)c1sccc1S(=O)(=O)Nc1ccc(Nc2ccccc2)cc1OC + O=S(=O)(c1ccccc1)N(CC(F)(F)F)c1ccc(C(O)(C(F)(F)F)C(F)(F)F)cc1 [T0901317] (first compound 1 µM, partner dose 1.4 µM)",93.4,147,19.1,69,25.9,119,83.8,84.5,143,67.9,48.5,40.9,66.6,204,32.4,20.9,128,132
"CN(NC(=O)CC(=O)NN(C)C(=S)c1ccccc1)C(=S)c1ccccc1 + COc1ccc2c(c1)CCC1C2CCC2(C)C(NCCCCCCN3C(=O)C=CC3=O)CCC12 [U73122] (first compound 0.006 µM, partner dose 0.4 µM)",60.5,144,171,188,81.9,76.7,133,80.8,47.4,122,39,103,101,154,113,35.4,80.7,30.2
"N#Cc1c(O)c2c(-c3ccc(-c4ccccc4O)cc3)csc2[nH]c1=O + COc1cc2ncnc(Nc3ccc(Oc4ccccc4)cc3)c2cc1OC [SrcI1] (first compound 2 µM, partner dose 2 µM)",81.3,71,29.1,84.4,201,60,94.3,146,31.1,62.5,77.8,60,87.3,48.7,55.2,110,30.4,77.7
"COc1cc2c(Oc3ccc4[nH]c(C)cc4c3F)ncnc2cc1OCCCN1CCCC1 [cediranib] + COc1ccc(-c2ccc3c(N4CCOCC4)nc(N4C[C@@H](C)O[C@@H](C)C4)nc3n2)cc1CO [KU0063794] (first compound 0.4 µM, partner dose 0.02 µM)",77.2,171,109,65.4,65.4,42.4,170,139,36.1,106,93.4,34.7,86,58.6,166,27.9,197,208
"COc1ccc(-c2ccc3c(N4CCOCC4)nc(N4C[C@@H](C)O[C@@H](C)C4)nc3n2)cc1CO + c1cc(-c2cnn3cc(-c4ccc(OCCN5CCCCC5)cc4)cnc23)ccn1 [Dorsomorphin] (first compound 0.02 µM, partner dose 0.4 µM)",53.5,127,86,183,113,66.1,170,432,1890,129,112,48.8,26.7,106,46.2,194,119,912
"COc1cc(N2CCC(N3CCN(C)CC3)CC2)ccc1Nc1ncc(Cl)c(Nc2ccccc2S(=O)(=O)C(C)C)n1 + O=c1cc(-c2cccc3c2Sc2ccccc2S3)oc(N2CCOCC2)c1 [KU55933] (first compound 0.08 µM, partner dose 1 µM)",206,224,118,80.9,101,114,529,68.4,112,59.9,72.6,50.6,81.2,168,269,59.3,224,162
"CCc1ccc(CCOc2ccc(CC3SC(=O)NC3=O)cc2)nc1 (configuration not stated) [pioglitazone] + O=C1NC(=O)/C(=C/c2ccc(-c3ccc(F)cc3O)o2)S1 [AS252424] (first compound 2 µM, partner dose 1 µM)",65.4,95.2,88.2,12.4,578,41.1,214,85.2,46.8,31,102,174,30.1,88.9,106,29.8,152,79.1
"O=C(Nc1ccccc1)c1cc([N+](=O)[O-])ccc1Cl + Cn1cc(/C=C2\C(=O)Nc3cccnc32)c2ccccc21 [GW441756] (first compound 2 µM, partner dose 0.4 µM)",119,103,107,73.8,44.7,64.3,913,84.5,26.4,73.1,52.4,92.6,112,86.9,48.7,36.8,61.2,496
"COc1ccc(COc2ccc(Cc3cnc(N)nc3N)cc2OC)cc1 + Oc1cc(-c2nc(-c3ccccc3)[nH]c2-c2ccncc2)ccc1Cl [L779450] (first compound 1 µM, partner dose 0.2 µM)",119,244,201,39.9,122,39.6,76.9,84.5,71.1,36.3,33.9,79.4,82,105,27.3,27.6,137,105
